The target of this assay is MITF-HA (UniProt O75030). The assay can be described thus: co-IP.

No constants are given. Whether binding was seen depends on the method and setting. In cells and extracts the contact can be indirect. Binding can be weak; no strength is given.

OCT4-Flag (from UniProt Q01860 1-360): the binding entry is on record as “binds”.

Values taken from publication doi:10.1101/142943.
